Assay results taken from paper PMC12621202, “RTx-303, an Orally Bioavailable Polθ Polymerase Inhibitor That Potentiates PARP Inhibitors in BRCA Mutant Tumors” (Journal of Medicinal Chemistry, 2025).

By UniProt entry, the sequences of proteins in these tests, tags left out. Where a name states a change or a piece, a line headed by the entry shows the natural chain unless it says otherwise.
UniProt O75417: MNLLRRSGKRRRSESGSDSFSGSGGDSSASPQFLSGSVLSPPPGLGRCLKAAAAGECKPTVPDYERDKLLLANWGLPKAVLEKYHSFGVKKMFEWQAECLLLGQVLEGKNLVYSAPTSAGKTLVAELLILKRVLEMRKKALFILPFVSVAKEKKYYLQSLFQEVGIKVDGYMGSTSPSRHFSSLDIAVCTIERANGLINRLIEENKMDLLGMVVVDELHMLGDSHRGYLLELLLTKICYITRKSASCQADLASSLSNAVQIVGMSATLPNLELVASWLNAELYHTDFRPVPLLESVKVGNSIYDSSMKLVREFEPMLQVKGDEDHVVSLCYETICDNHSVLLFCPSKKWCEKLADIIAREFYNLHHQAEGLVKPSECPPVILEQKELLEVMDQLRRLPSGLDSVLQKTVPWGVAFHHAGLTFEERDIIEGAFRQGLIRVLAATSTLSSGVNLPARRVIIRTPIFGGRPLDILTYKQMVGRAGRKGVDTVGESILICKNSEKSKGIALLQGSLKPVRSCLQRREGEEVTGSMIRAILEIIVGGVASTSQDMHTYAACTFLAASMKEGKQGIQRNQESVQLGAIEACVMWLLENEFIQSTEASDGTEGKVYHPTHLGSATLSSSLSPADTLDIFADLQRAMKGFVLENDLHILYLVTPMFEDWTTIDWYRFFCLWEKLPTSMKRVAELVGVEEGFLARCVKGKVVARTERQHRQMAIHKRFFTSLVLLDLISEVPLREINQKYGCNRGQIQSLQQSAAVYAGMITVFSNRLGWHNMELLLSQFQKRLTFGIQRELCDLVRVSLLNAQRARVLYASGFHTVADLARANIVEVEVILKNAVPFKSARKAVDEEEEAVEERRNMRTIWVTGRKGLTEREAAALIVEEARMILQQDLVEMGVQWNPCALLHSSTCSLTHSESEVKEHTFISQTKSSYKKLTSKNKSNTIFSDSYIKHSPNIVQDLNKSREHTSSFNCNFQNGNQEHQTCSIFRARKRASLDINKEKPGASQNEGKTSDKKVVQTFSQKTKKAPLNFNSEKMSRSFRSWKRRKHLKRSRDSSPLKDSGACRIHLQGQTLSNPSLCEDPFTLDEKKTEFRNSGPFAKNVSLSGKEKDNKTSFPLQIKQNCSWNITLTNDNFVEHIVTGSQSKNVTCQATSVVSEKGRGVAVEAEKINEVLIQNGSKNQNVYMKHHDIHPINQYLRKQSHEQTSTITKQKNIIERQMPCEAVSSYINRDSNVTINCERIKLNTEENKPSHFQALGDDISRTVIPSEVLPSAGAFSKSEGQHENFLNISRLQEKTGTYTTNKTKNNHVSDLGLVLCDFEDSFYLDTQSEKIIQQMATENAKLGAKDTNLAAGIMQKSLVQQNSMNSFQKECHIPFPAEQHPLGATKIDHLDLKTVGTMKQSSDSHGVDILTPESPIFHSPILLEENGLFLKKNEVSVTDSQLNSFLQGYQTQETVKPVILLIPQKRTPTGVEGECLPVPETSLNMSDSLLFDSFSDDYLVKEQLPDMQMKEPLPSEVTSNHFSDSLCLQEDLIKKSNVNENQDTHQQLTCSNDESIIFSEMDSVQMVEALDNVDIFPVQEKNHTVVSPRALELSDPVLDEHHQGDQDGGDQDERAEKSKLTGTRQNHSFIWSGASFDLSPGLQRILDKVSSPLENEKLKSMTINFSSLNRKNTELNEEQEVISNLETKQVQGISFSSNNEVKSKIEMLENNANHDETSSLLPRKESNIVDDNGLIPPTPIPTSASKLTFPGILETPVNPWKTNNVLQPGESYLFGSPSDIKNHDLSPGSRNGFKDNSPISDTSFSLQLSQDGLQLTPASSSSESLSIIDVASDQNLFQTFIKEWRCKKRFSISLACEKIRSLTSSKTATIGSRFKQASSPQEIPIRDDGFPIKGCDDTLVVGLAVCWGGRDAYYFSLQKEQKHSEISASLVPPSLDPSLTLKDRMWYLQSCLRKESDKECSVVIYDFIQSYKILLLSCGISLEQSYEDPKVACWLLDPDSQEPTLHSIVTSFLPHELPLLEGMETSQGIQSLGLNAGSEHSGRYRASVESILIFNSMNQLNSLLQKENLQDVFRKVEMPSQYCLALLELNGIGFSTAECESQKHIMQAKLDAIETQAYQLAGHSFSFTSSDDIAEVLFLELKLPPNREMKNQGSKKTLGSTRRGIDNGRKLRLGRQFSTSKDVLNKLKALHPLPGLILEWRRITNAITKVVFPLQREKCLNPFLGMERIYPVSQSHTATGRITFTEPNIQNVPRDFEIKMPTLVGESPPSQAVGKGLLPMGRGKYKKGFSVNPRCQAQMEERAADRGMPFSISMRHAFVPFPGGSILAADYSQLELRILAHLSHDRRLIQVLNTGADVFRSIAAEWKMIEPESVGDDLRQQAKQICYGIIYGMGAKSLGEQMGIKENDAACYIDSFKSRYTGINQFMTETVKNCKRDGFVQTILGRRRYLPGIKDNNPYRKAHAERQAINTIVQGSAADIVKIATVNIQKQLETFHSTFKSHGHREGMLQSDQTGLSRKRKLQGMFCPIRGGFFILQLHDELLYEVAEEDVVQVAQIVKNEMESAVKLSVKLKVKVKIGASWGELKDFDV

Molecular target: PolθΔL (Polθ-pol, five flexible loops replaced by Gly-Ser spacers) (UniProt O75417)
Test: X-ray crystallography
Conditions: ddGTP, Crystallization (hanging drop): 2.5 mg/mL PolθΔL, 50 μM DNA duplex, 170 μM inhibitor, 1 mM ddGTP, 300 μM sucrose monolaurate, 1 mM MgCl2, 20 mM spermine, recombinant protein, protein details: N-terminal 6xHis-SUMO-PreScission, cleaved

Question: Does “CGACGTCGCAGCGC / GCGAGACTCCGCGCTGCGACGTCG [primer/template DNA duplex]” bind (RTx-161, 1 mM Mg2+, 3.31 Å)?
Answer: binds

Question: Does “CGACGTCGCAGCGC / GCGAGACTCCGCGCTGCGACGTCG [primer/template DNA duplex]” bind (RTx-302, 1 mM Mg2+)?
Answer: binds

Construct, isoform or probe ends are uncertain for at least one entry.
